Results from article PMC8298264, “Function of cofactor Akirin2 in the regulation of gene expression in model human neutrophil-like HL60 cells” (Bioscience Reports, 2021).

System: human HL60 cells
Assay: SWATH-MS proteomics, differential protein representation, akirin2 KO vs WT HL60 cells
Assay type: cell-based
Conditions: sheet "Under-represented in KO"
Description: Total proteins were extracted from WT and akirin2 KO HL60 cells using the AllPrep DNA/RNA/Protein Mini Kit (Qiagen) and protein concentration was determined using the BCA Protein Assay with BSA (Sigma–Aldrich) as standard. Protein extracts (150 µg per sample, n=3 biological replicates) from each WT and KO cells were trypsin digested using the FASP Protein Digestion Kit (Expedeon Ltd., Abcam, Cambridge, U.K.) and sequencing grade trypsin (Promega, Madison, WI, U.S.A.) following manufacturer’s recommendations. The resulting peptides were finally desalted on to OMIX Pipette tips C18 (Agilent Technologies, Santa Clara, CA, U.S.A.), dried down and stored at −20 °C until mass spectrometry analysis. […] Three micrograms of each protein digest from the three biological replicates of WT and akirin2 KO HL60 cells were used for the generation of the reference spectral ion library as part of the SWATH-MS analysis.
Peptides were eluted in a 120-min gradient from 5 to 30% solvent B in solvent A followed by 15-min gradient from 30 to 60% solvent B in solvent A (solvent A: 0.1% formic acid in water, solvent B: 0.1% formic acid in acetonitrile) and directly injected into the mass spectrometer for analysis. For IDA experiments, the mass spectrometer was set to scanning full spectra (350–1400 m/z) using 250 ms accumulation time per spectrum, followed by up to 50 MS/MS scans (100–1500 m/z). Candidate ions with a charge state between +2 and +5 counts per second above a minimum threshold of 100 were isolated for fragmentation. One MS/MS spectrum was collected for 100 ms, before adding those precursor ions to the exclusion list for 15 s (mass spectrometer operated by Analyst TF 1.6, AB Sciex). Dynamic background subtraction was turned off. MS/MS analyses were recorded in high-sensitivity mode with rolling collision energy on and a collision energy spread of 5. For SWATH quantitative analysis, six independent samples (three replicates from WT and akirin2 KO HL60 cells, 5 µg each) were subjected to the cyclic DIA of mass spectra using the SWATH variable windows calculator (V 1.0, AB Sciex) and the SWATH acquisition method editor (AB Sciex), similar to established methods. […] For these experiments, a 50-ms survey scan (350–1400 m/z) was acquired at the beginning of each cycle, and SWATH–MS/MS spectra were collected from 100–1500 m/z for 70 ms at high-sensitivity mode, resulting in a cycle time of 3.6 s. Collision energy for each window was determined according to the calculation for a charge +2 ion-centered upon the window with a collision energy spread of 15. To create a spectral library of all the detectable peptides in the samples, the IDA MS raw files were combined and subjected to database search in unison using ProteinPilot software v. 5.0.1 (AB Sciex) with the Paragon algorithm. […] The detected protein threshold was set at 0.05. An independent false discovery rate (FDR) analysis, using the target–decoy approach provided by Protein Pilot (AB Sciex; https://sciex.com/products/software/proteinpilot-software), was used to assess the quality of identifications. Positive identifications were considered when identified proteins reached 1% of global FDR. […] Global normalization was performed according to the Total Area Sums (TAS) of all detected proteins in the samples. […] Heatmaps were prepared using the Heatmapper (http://www.heatmapper.ca/expression/) with average linkage and Euclidean distance measurement method.

[1] = akirin2 KO vs WT HL60 cells, SWATH-MS

sp¦Q9BYG3¦MK67I_HUMAN
Fold Change (KO vs WT HL60 cells): 0.8627
Log (Fold Change) (KO vs WT HL60 cells): -0.06412

sp¦Q08J23¦NSUN2_HUMAN
Fold Change [1]: 0.8062
Log (Fold Change) [1]: -0.09355

sp¦Q9NUJ1¦ABHDA_HUMAN
Fold Change [1]: 0.8154
Log (Fold Change) [1]: -0.08865

sp¦P14625¦ENPL_HUMAN
Fold Change (KO vs WT HL60 cells): 0.9081
Log (Fold Change) (KO vs WT HL60 cells): -0.04186

sp¦P07814¦SYEP_HUMAN
Fold Change [1]: 0.7964
Log (Fold Change) [1]: -0.09889

sp¦P46940¦IQGA1_HUMAN
Fold Change (KO vs WT HL60 cells): 0.9054
Log (Fold Change) (KO vs WT HL60 cells): -0.04316

sp¦Q5JVF3¦PCID2_HUMAN
Fold Change [1]: 0.8079
Log (Fold Change) [1]: -0.09263

sp¦P49792¦RBP2_HUMAN
Fold Change (KO vs WT HL60 cells): 0.8796
Log (Fold Change) (KO vs WT HL60 cells): -0.05573

sp¦P46063¦RECQ1_HUMAN
Fold Change [1]: 0.8057
Log (Fold Change) [1]: -0.09384

sp¦Q9NR30¦DDX21_HUMAN
Fold Change [1]: 0.8521
Log (Fold Change) [1]: -0.06949

sp¦Q08211¦DHX9_HUMAN
Fold Change (KO vs WT HL60 cells): 0.8851
Log (Fold Change) (KO vs WT HL60 cells): -0.05303

sp¦Q9Y5K5¦UCHL5_HUMAN
Fold Change [1]: 0.8299
Log (Fold Change) [1]: -0.08098

sp¦Q9UBE0¦SAE1_HUMAN
Fold Change [1]: 0.8421
Log (Fold Change) [1]: -0.07464

sp¦P61586¦RHOA_HUMAN
Fold Change [1]: 0.8413
Log (Fold Change) [1]: -0.07506

sp¦Q969U7¦PSMG2_HUMAN
Fold Change (KO vs WT HL60 cells): 0.9336
Log (Fold Change) (KO vs WT HL60 cells): -0.02985

sp¦Q14566¦MCM6_HUMAN
Fold Change [1]: 0.8281
Log (Fold Change) [1]: -0.08192

sp¦P51149¦RAB7A_HUMAN
Fold Change (KO vs WT HL60 cells): 0.8579
Log (Fold Change) (KO vs WT HL60 cells): -0.06658

sp¦Q9UNM6¦PSD13_HUMAN
Fold Change (KO vs WT HL60 cells): 0.8739
Log (Fold Change) (KO vs WT HL60 cells): -0.05855

sp¦A6NHR9¦SMHD1_HUMAN
Fold Change [1]: 0.8475
Log (Fold Change) [1]: -0.07187

sp¦O43776¦SYNC_HUMAN
Fold Change [1]: 0.8303
Log (Fold Change) [1]: -0.08076

sp¦Q01813¦PFKAP_HUMAN
Fold Change [1]: 0.8149
Log (Fold Change) [1]: -0.08889

sp¦P06576¦ATPB_HUMAN
Fold Change (KO vs WT HL60 cells): 0.8606
Log (Fold Change) (KO vs WT HL60 cells): -0.0652

sp¦P06748¦NPM_HUMAN
Fold Change [1]: 0.8302
Log (Fold Change) [1]: -0.08081

sp¦Q9ULC4¦MCTS1_HUMAN
Fold Change [1]: 0.7938
Log (Fold Change) [1]: -0.1003

sp¦Q8TEM1¦PO210_HUMAN
Fold Change (KO vs WT HL60 cells): 0.8773
Log (Fold Change) (KO vs WT HL60 cells): -0.05687

sp¦P31153¦METK2_HUMAN
Fold Change [1]: 0.8314
Log (Fold Change) [1]: -0.08017
